Taken from: PubChem BioAssay AID652259 (Drosophila RNAi Screening Center, 2013)
In all, the deposit lists about 22,000 reagents; shown is a random part of those that have a named target and a result. In the full data, 233 (1.1%) were called active. 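Light values are raw, unnormalised plate reads; the ratio scores behind the reporter calls were not deposited.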 Unmarked entries are inactive. A plus sign joins genes that one reagent is predicted to hit. Not stated in the record: the amount of reagent, the time to read-out, the dose of the treatment.

- Purpose: 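Knock-downs that push a Wingless-driven reporter up or down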 (primary screen)
- System: Drosophila clone 8 imaginal disc epithelial cells
- Knock-down reagent: long dsRNA against Drosophila genes
- Treatment: pathway stimulated by co-transfected Wingless expression plasmid
- Read-out: 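Firefly luciferase from a tcf-site Wingless reporter, measured alongside co-transfected Renilla luciferase that tracks transfection; pathway stimulated by a Wingless plasmid; the firefly-to-Renilla ratio is not deposited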
- Reading the numbers: firefly reporter light: higher = more Wg reporter light, before normalisation; Renilla control light: higher = more transfected or surviving cells
- Call rule: 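a knock-down is a candidate when at least two out of four statistical tests show it departing from its plate mean; one test alone signals a weak candidate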
- Calls: active = candidate regulator (raises or lowers reporter); inactive = not a candidate

The opening 11 records as a preview:
no.	target gene	DRSC id	reporter change call, replicate 1	firefly reporter light, replicate 1	firefly reporter light, replicate 2	Renilla control light, replicate 1	Renilla control light, replicate 2
1	CG34354	DRSC13863		5520		1860	
2	CG34354	DRSC14515	Wg reporter activity raised (active)	9483		1176	
3	CG34354	DRSC14558		6128		930	
4	CG34354	DRSC15645		7312		3296	
5	ringer	DRSC10455		4513		2641	
6	CG13679	DRSC10037		2616	13136	1883	5318
7	CG13679	DRSC22749		7.39e5	7.02e5	2.67e5	2.60e5
8	CG5023	DRSC15697		18160		4843	
9	GV1	DRSC08228		7810		3053	
10	Brms1	DRSC19896		17952		10960	
11	RnrL	DRSC03413		8426		2836	

The listing, from the first entry:
no.	target gene	DRSC id	reporter change call, replicate 1	firefly reporter light, replicate 1	firefly reporter light, replicate 2	Renilla control light, replicate 1	Renilla control light, replicate 2
1	CG34354	DRSC13863		5520		1860	
2	CG34354	DRSC14515	Wg reporter activity raised (active)	9483		1176	
3	CG34354	DRSC14558		6128		930	
4	CG34354	DRSC15645		7312		3296	
5	ringer	DRSC10455		4513		2641	
6	CG13679	DRSC10037		2616	13136	1883	5318
7	CG13679	DRSC22749		7.39e5	7.02e5	2.67e5	2.60e5
8	CG5023	DRSC15697		18160		4843	
9	GV1	DRSC08228		7810		3053	
10	Brms1	DRSC19896		17952		10960	
11	RnrL	DRSC03413		8426		2836	
12	side-III	DRSC12155		15819		2982	
13	side-III	DRSC12263		15653		1755	
14	side-III	DRSC12264		16882		4296	
15	His3:CG33818 + His3:CG33857 + His3:CG33806 + 20 more	DRSC21267		13584		986	
16	Ctl1	DRSC08303		4873		2195	
17	CG32625	DRSC18994		5076		1124	
18	Ubc7	DRSC20299		19265		7880	
19	nmd	DRSC02856		6488		2296	
20	CG10307	DRSC04057		8368		2356	
21	Kat60	DRSC12378		9511		2208	
22	Ugt301D1	DRSC02021		3800	7480	1244	2962
23	mus101	DRSC19388		32288		15853	
24	Ino80	DRSC14760		13980		2118	
25	Ino80	DRSC15333		13651		1653	
26	Ino80	DRSC15501		8013		1413	
27	Hem	DRSC11865		4832		2080	
28	CG33341	DRSC22887		6.01e5	4.94e5	2.34e5	62139
29	KdelR	DRSC03353		8918		2317	
30	DMAP1	DRSC06044	Wg reporter activity raised (active)	53760		2876	
31	CG30109 + CG30108	DRSC05674		15302		11538	
32	Stt3A	DRSC20514		2551	5495	866	2688
33	Sbds	DRSC10992		4616		2016	
34	Mitofilin	DRSC16742		2749	3808	790	1072
35	CG12155	DRSC17826		1808	8496	746	2205
36	SMC6	DRSC15829		26122		21712	
37	CG31638	DRSC02269		2877	5521	848	928
38	CG31638	DRSC03259		3045	2657	1012	669
39	PolD2	DRSC08147		12528		3776	
40	CG13842	DRSC14692		19028		14585	
41	lncRNA:CR41443	DRSC07733		20572		14348	
42	CG5938	DRSC15923		4800	10968	824	835
43	NANS	DRSC15743		10416		3024	
44	CG34457	DRSC06924		6459		2349	
45	Drat	DRSC06600		8291		1696	
46	CG13857	DRSC14707		38885		6395	
47	Vmat + CG13330	DRSC06365		12421		3077	
48	strat	DRSC03069		3484	10886	1239	3561
49	CG10435	DRSC14246		7605		1920	
50	CG15014	DRSC08468		1883	5543	1180	2310
51	CG43063	DRSC12948		3056		1122	
52	Diedel	DRSC14317		7677		3414	
53	L (retired record)	DRSC05966		12905		2048	
54	L (retired record)	DRSC05967		10746		1642	
55	ewg	DRSC18773		24650	6.47e5	15824	2.96e5
56	MCPH1	DRSC06309		16374		3313	
57	MCPH1	DRSC07308		5788		2368	
58	MCPH1	DRSC22536		5.40e5	5.82e5	1.61e5	1.60e5
59	CG4592	DRSC02761		11861		4397	
60	Echs1	DRSC06999		7319		2627	
61	CG3598	DRSC18471		19613		14713	
62	CG31650	DRSC03140		9101	7.30e5	4064	3.59e5
63	Jhbp12	DRSC14621		9149		11357	
64	p38a	DRSC16743		18320		16714	
65	IntS2	DRSC20094		4141	10197	1008	4032
66	CG34057	DRSC08375		4386		2496	
67	CG11585	DRSC19410		16442		8829	
68	CG18249	DRSC15318		4865		2128	
69	Pde11	DRSC02028		4950		1533	
70	Pde11	DRSC02460		3668	10509	505	3191
71	CG14252	DRSC14747		6635		2461	
72	Pgk	DRSC00769		5691	9580	1414	3056
73	Mgat4b	DRSC10256		7337		2439	
74	Hcf	DRSC17143		2684	5409	1152	2021
75	Ugt36D1	DRSC02600		12213		2104	
76	ATP7	DRSC19819		21840		9165	
77	CG14511	DRSC14863		7120		2000	
78	PGRP-SC2	DRSC06481		2637	7648	1004	3288
79	SP1029	DRSC16848		7105		2555	
80	CG12826	DRSC06175		3452	7233	800	2417
81	sr	DRSC13284		2035		1325	
82	sr	DRSC17067		14515		2426	
83	ihog	DRSC03157		12675		4250	
84	zuc	DRSC02160		14178		4363	
85	CG30431	DRSC04902		13637		4057	
86	CG30431	DRSC04904		3785	8358	1064	2525
87	srp	DRSC13125		2579		746	
88	srp	DRSC17068		12619		1841	
89	Panx	DRSC04563		1933	6646	653	2580
90	Psf3	DRSC18216		12528		10145	
91	Psf3	DRSC21487		4.37e5	4.62e5	2.03e5	1.67e5
92	nst	DRSC09755		3861		1427	
93	CG14852	DRSC14976		13339		3206	
